Laboratory results taken from PubChem BioAssay AID2685 (National Center for Advancing Translational Sciences (NCATS), 2010).
The other results are listed elsewhere or left out. These are further read-outs of the screen, such as a control signal, another cell line or another target. No call is given for them. Compounds called inactive in the main read-out are mostly missing here. Potencies come from curve fits of mixed quality, noted in brackets.

Test: qHTS Assay for Lipid Storage Modulators in Drosophila S3 Cells;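 on cell number change: cells counted by Cell Tracker Red CMTPX staining in the red channel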
Details: BODIPY lipid droplet fluorescence, 18-24 h; for cell number change: measured here: cell count max response, cells fed with added oleic acid
Method in brief: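 Laser-scanning cytometry quantifies lipid droplet accumulation (500–530 nm total intensity; droplet/cell object ratio) in oleic acid-fed (400 uM added) Drosophila S3 cells treated with a concentration series. 20 uM Triacsin C defined 100% inhibition.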

[1] = measured here: lipid fluorescence (Fed channel) AC50, cells fed with added oleic acid
[2] = measured here: cell number channel AC50, cells fed with added oleic acid

Row | SMILES | cell number change | AC50 [1] | AC50 [2]
1 | Cc1nc2ccccc2c(=O)n1/N=C/c1ccccc1F | 18.5% | 6.51 µM [rising, single point] | –
2 | CCC(NC(=O)c1ccc([N+](=O)[O-])cc1[N+](=O)[O-])c1ccccc1 (centres undefined) | -26.9% | – | 0.116 µM [falling, full curve]
3 | COc1cccc(C(=O)NNS(=O)(=O)c2ccc(C)cc2)c1 | 27.4% | 29.1 µM [rising, single point] | –
4 | CCc1ccc(-n2c(SCc3c(C)noc3C)nnc2-c2ccncc2)cc1 | – | 6.51 µM [rising, partial curve] | 0.731 µM [rising, partial curve]
5 | O=C(CCC(=O)N1CCN(C2CCCCC2)CC1)Nc1nnc(C(F)(F)F)s1 | -48.8% | 1.16 µM [falling, full curve] | 20.6 µM [falling, partial curve]
6 | CN1C(=O)c2ccc(C(=O)NC3CCCCC3)cc2C1=O | – | 6.51 µM [rising, single point] | 6.51 µM [rising, single point]
7 | O=C(c1ccc(Cl)cc1)N1CCN(CCc2ccccn2)CC1 | 118% | 29.1 µM [rising, partial curve, poor fit] | 9.2 µM [rising, partial curve]
8 | COc1ccc(NC(=O)c2ccc(-n3cccn3)c([N+](=O)[O-])c2)cc1 | -122% | – | 2.06 µM [falling, partial curve]
9 | O=C(N/N=C/c1ccc(OC(F)F)cc1)c1cc[n+]([O-])cc1 | 37.1% | – | 25.9 µM [rising, single point]
10 | COC(=O)[C@H](CCSC)NC(=O)NCCc1ccccc1F | -33.5% | – | 29.1 µM [falling, single point]
11 | Cc1c(C)c2ccc(OCC(=O)Nc3ccccn3)cc2oc1=O | 0.708% | 6.51 µM [falling, single point] | –
12 | CC1CCCN(C(=O)CNC(=O)c2cccs2)C1 (centres undefined) | 4.28% | 0.00461 µM [falling, full curve, poor fit] | –
13 | O=C(Nc1nc(-c2ccc(Cl)cc2)cs1)C1=COCCO1 | – | 0.58 µM [falling, full curve, poor fit] | –
14 | COC(=O)c1ccc(S(=O)(=O)c2ccccc2)c(N)c1 | 71.7% | – | 13 µM [rising, partial curve]
15 | CCCCn1c(SCC(=O)N2CCCc3ccccc32)nc2c1c(=O)n(C)c(=O)n2C | 4.57% | – | –
16 | Cc1ccc(C(=O)NC(=S)Nc2ccc(N3CCOCC3)cc2)cc1 | -20.9% | 0.0058 µM [falling, full curve, poor fit] | –
17 | O=C(CCN1C(=O)/C(=C/c2ccc(F)cc2)SC1=S)NCCc1cnc[nH]1 | -39.7% | 20.6 µM [falling, single point] | 29.1 µM [falling, single point]
18 | Cc1nn(Cc2cccc(F)c2)c(C)c1NC(=O)c1ccc(COc2ccccc2Cl)cc1 | -79.2% | 29.1 µM [falling, partial curve] | –
19 | c1ccc(Cn2c3ccccc3c3nnc(SCCN4CCCCC4)nc32)cc1 | 30.9% | – | 14.6 µM [rising, partial curve]
20 | COC(=O)c1ccc(NC(=S)NC2CCCCC2)cc1 | -7.36% | 1.84 µM [rising, partial curve] | 1.46 µM [rising, partial curve]
21 | CS(=O)(=O)N(CC(=O)N1CCCC1)c1cc(Cl)c(Cl)cc1Cl | 81% | 10.3 µM [rising, partial curve] | 8.2 µM [rising, partial curve]
22 | NC(=O)CC(NC(=O)c1ccc(Br)cc1)c1ccc(NC2CCCCCC2)c([N+](=O)[O-])c1 (centres undefined) | 14.7% | 9.2 µM [falling, partial curve] | –
23 | Cc1ccc(S(=O)(=O)N(C)C)cc1NC(=O)COC(=O)CCNS(=O)(=O)c1ccccc1 | -2.88% | 10.3 µM [rising, partial curve] | –
24 | CCN1C(=O)C2(C(C#N)=C(N)Oc3n[nH]c(-c4ccc(Cl)cc4)c32)c2ccccc21 (centres undefined) | 42.7% | 6.51 µM [rising, partial curve] | 0.731 µM [rising, full curve]
25 | COc1ccc(C2=NN(C(=O)CSc3nc(=O)n4cccc(C)c4n3)C(c3ccc(C)cc3)C2)cc1 (centres undefined) | 6.7% | 2.59 µM [rising, partial curve] | 2.31 µM [rising, partial curve]
26 | O=C(COC(=O)CNS(=O)(=O)c1ccccc1)Nc1ncc(Cl)cc1Cl | 0.251% | 1.64 µM [rising, full curve, poor fit] | –
27 | N#Cc1ccc(-c2ccc(F)cc2)nc1Oc1ccccc1 | 56.8% | – | 18.4 µM [rising, single point]

Record cards, as listed above.
O=C(CCC(=O)N1CCN(C2CCCCC2)CC1)Nc1nnc(C(F)(F)F)s1 in the list: cell number change: -48.8%; AC50 [1]: 1.16 µM [falling, full curve]; AC50 [2]: 20.6 µM [falling, partial curve]
O=C(CCN1C(=O)/C(=C/c2ccc(F)cc2)SC1=S)NCCc1cnc[nH]1 in the list: cell number change: -39.7%; AC50 [1]: 20.6 µM [falling, single point]; AC50 [2]: 29.1 µM [falling, single point]
